# Experimental data published in PMC11355008.
# Results are given in words; binding and its absence hold for the method and conditions named. Binding seen in cells or lysates may run through a third protein. Some entries that bind do so weakly or less than the wild type. Where a sequence is shown, tags or fusion partners need not be part of it.
# T1: HA2-N70Q-hTRESK (human) (UniProt Q7Z418)
# T1 sequence: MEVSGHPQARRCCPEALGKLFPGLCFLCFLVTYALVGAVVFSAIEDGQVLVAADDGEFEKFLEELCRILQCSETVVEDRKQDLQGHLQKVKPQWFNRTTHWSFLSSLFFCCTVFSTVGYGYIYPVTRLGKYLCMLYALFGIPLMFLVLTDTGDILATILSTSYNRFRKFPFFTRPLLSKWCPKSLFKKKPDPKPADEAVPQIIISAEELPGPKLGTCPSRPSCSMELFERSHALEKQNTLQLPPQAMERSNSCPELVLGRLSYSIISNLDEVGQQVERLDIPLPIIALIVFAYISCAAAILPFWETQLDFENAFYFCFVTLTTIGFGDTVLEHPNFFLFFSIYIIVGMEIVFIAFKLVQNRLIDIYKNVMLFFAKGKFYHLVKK
# Molecular target: T1, HA2-N70Q-hTRESK (human)
# Assay: co-IP; anti-HA agarose (Pierce HA Tag IP/Co-IP Kit) on the 1% NP-40 solubilized crude membrane fraction of Xenopus oocytes coexpressing both proteins; overnight at 4 °C; washed with Tris 25 mM pH 7.2, NaCl 150 mM, Tween-20 0.05%; anti-His immunoblot
binder,measurement,value
"His8-hNDFIP1 (protein, UniProt Q9BT67-1 1-221) MALALAALAAVEPACGSRYQQLQNEEESGEPEQAAGDAPPPYSSISAESAAYFDYKDESGFPKPPSYNVATTLPSYDEAERTKAEATIPLVPGRDEDFVGRDDFDDADQLRIGNDGIFMLTFFMAFLFNWIGFFLSFCLTTSAAGRYGAISGFGLSLIKWILIVRFSTYFPGYFDGQYWLWWVFLVLGFLLFLRGFINYAKVRKMPETFSNLPRTRVLFIY",binding,binds
